Our source for the binding values is PMC4379586.

The target of the assay is T1, endogenous MDM4 (human (endogenous in NB-1691 and LA1-55N)), O15151.
T1 chain: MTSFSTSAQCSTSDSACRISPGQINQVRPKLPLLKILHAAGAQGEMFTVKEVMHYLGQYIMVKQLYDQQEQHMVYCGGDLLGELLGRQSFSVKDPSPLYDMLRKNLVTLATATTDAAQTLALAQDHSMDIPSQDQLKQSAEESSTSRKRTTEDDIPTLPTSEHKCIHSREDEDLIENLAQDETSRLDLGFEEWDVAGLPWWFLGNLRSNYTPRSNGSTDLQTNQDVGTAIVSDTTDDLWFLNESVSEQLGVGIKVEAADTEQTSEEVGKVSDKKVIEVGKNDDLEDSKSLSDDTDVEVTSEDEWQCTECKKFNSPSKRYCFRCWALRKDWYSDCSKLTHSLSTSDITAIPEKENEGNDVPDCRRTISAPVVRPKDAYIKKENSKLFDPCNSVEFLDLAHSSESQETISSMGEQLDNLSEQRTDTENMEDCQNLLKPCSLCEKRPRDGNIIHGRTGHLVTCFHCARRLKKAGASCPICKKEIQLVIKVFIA
As to the kind of experiment: cross-linking; DSS (0.25, 0.5, 1 mM) on suspended NB-1691 and LA1-55N cells, 30 min at room temperature, quenched with TBS, lysed, Western blot of endogenous proteins; NB-1691 also with or without XIAP IRES RNA. The note with it: remark: other sources report otherwise. (In general: In western blotting, separated proteins are transferred to a membrane and probed.)

These are yes or no findings as the source states them, for the method shown. Binding seen in cells or lysates may run through a third protein. Some binding calls cover weakened binding; strength is not graded here.

B1: endogenous MDM4, O15151 1-490 (protein)
chain: MTSFSTSAQCSTSDSACRISPGQINQVRPKLPLLKILHAAGAQGEMFTVKEVMHYLGQYIMVKQLYDQQEQHMVYCGGDLLGELLGRQSFSVKDPSPLYDMLRKNLVTLATATTDAAQTLALAQDHSMDIPSQDQLKQSAEESSTSRKRTTEDDIPTLPTSEHKCIHSREDEDLIENLAQDETSRLDLGFEEWDVAGLPWWFLGNLRSNYTPRSNGSTDLQTNQDVGTAIVSDTTDDLWFLNESVSEQLGVGIKVEAADTEQTSEEVGKVSDKKVIEVGKNDDLEDSKSLSDDTDVEVTSEDEWQCTECKKFNSPSKRYCFRCWALRKDWYSDCSKLTHSLSTSDITAIPEKENEGNDVPDCRRTISAPVVRPKDAYIKKENSKLFDPCNSVEFLDLAHSSESQETISSMGEQLDNLSEQRTDTENMEDCQNLLKPCSLCEKRPRDGNIIHGRTGHLVTCFHCARRLKKAGASCPICKKEIQLVIKVFIA
B1: the binding result is recorded as “binds”.
